SMILES strings stand for the structures. Hit rate of the full screen: of about 210,000 compounds, about 5,900 (2.8%) were called active. Roughly 5% stayed inconclusive and do not appear here. Calls follow the shape of the dose curve; as a rule, active = well fitted activation curve with a large enough effect; inconclusive = small, poorly fitted or top-dose-only effect; inactive = no such curve, though single readings can be large or run the other way. Only a part is listed here, and it is no random draw. Entries without a call were filed so in the source.
Potency is read from the fitted curve at half-maximal effect.

The nature of this experiment: qHTS Assay for Enhancers of SMN2 Splice Variant Expression. Also: nearly all actives have a fitted effect of over 55% in size. As to activity change, positive = activation: % of control where 0% means no effect. The following applies: HEK293 SMN2-luciferase splicing reporter, luminescence, 30-36 h; activity change, positive = activation: at 46.1 µM (top of the series) unless noted. The source says:
NIH Chemical Genomics Center [NCGC] NIH Molecular Libraries Probe Production centers Network [MLPCN] MLPCN Grant: R03 MH084179-01 Assay Submitter (PI): Elliot Androphy NCGC Assay Overview: Spinal muscular atrophy (SMA) is caused by insufficient levels of the survival motor neuron protein SMN. The SMN locus on chromosome 5q13 contains two inverted copies of SMN called SMN1 and SMN2 which are 99% identical at the amino acid level. SMN1 is a fully functional protein and SMN2 skips exon 7 90% of the time. Skipping of exon 7 produces non-functional protein product. 10% of the SMN2 protein includes exon 7 and is fully functional. In the SMA disease state, mutations in the SMN1 locus are the cause of the disease state. Because only 10% of SMN2 is of the fully functional form, it is not sufficient to overcome the deficiency produced by the loss of the SMN1 product. A therapy that either increase the amount of SMN2 product made or to increase the inclusion of exon 7 has been proposed for the treatment of SMA. We have designed an assay to identify small molecules that can increase the amount of functional SMN2 product by appending a luciferase reporter gene after the native SMN2 gene, such that inclusion of exon 7 in the expressed product places the luciferase sequence in frame, thus generating functional luciferase enzyme.
NCGC Assay Protocol Summary: This screen utilizes a luciferase reporter gene assay, combining the promoter and splicing based cassettes in tandem with the major portion of the native SMN2 cDNA, and then transfected into HEK293 cells. Compounds that increase luciferase signal presumably enhance expression of the functional SMN2 splice variant. Passaging media contained DMEM w/ glutamax (+phenol red) 10% FCS, 1x pen/strep, 200 ug/ml hygro, 1x sodium pyruvate. Assay media contained DMEM w/ glutamax (-phenol red) 10% FCS, 1x pen strep, 1x pyruvate Sequence, Parameter, Value, Description (1) Cells, […], 2000 cells/well, 1536 TC treated White solid bottom plate (2) Time, 10-12 hours, 37C 5% CO2 (3) Compound, 23 nl, MLSMR Library (4) Control Compound, 23 nL, Sodium butyrate st 4.5mM (final) conc (5) Time, 30-36 hours, 37C 5% CO2 (6) Reagent, 3 ul, One Glo (TM) from Promega (7) Time, 5-15 minutes, Room temp (8) Detector, Viewlux: luminescent read, 60 second integration, high speed 2x binning Keywords: Spinal muscular atrophy, SMA, SMN2, high throughput screening, MLSMR, MLPCN, NIH Roadmap, qHTS and NCGC
A general note: qHTS replaces the single test concentration by a dilution series.
As to `CCc1ccc(C(=O)CCC2CCCCC2=O)cc1` (stereo not given), the “activity change, positive = activation” value is inactive: -4.22%.

In the case of `COc1cccc(CCc2ccccc2OCC[C@@H]2C[C@@H](O)CN2C)c1`, the “activity change, positive = activation” value is inactive: -37.6%.

On to `COc1ccc(-c2cc(C#N)nc(N3CCN(c4ccccc4)CC3)n2)cc1`, for which the “activity change, positive = activation” value was inactive: -45.3%.

As to `CC(=O)OC[C@H]1O[C@@H](n2ncc(=O)[nH]c2=O)[C@H](OC(C)=O)[C@@H]1OC(C)=O`, the Potency is active: 10 µM.

Consider `CCC1(CC)NC(=O)N(CC(=O)Nc2sc3c(c2C(N)=O)CCC3)C1=O`, for which the activity change, positive = activation was 40.3%.

Take `O=C(CSc1nc(-c2ccccc2)ns1)N1CCOCC1`: the activity change, positive = activation came out at 61%.

`O=C(Nc1ccccc1F)Nc1ccccc1F`: the Potency was active: 12.6 µM.

Take `CCn1c(=O)cc(OCC(=O)NC2CCCCC2)c2ccccc21`: the activity change, positive = activation was determined as 46.3%.

Turning to `O=C(NCC1CCCO1)C1CC(c2ccccc2Cl)=NO1` (stereo not given), the activity change, positive = activation was determined as 46%.

For `CC(=O)Nc1ccc(NC(=O)CSCc2cnn(-c3ccccc3)c2-n2cccc2)cc1`, the activity change, positive = activation is -33.3%.

In the case of `CCCn1c(-c2ccc(OC)cc2)nc2c(=O)n(C)c(=O)[nH]c21`, the activity change, positive = activation worked out at 33.6%.

As for `COc1ccc(Nc2nc(-c3ccc4c(c3)NC(=O)CO4)cs2)cc1`, the “activity change, positive = activation” value was inactive: -63.9%.

With `CCOC(=O)COc1ccc(S(=O)(=O)NCCC2=CCCCC2)cc1`, the activity change, positive = activation came out at 21.7%.

Regarding `O=C1c2cccc3c([N+](=O)[O-])ccc(c23)C(=O)N1c1ccccn1`, the activity change, positive = activation is -68%.

In the case of `Cc1ccc(CSC(Nc2ccc(F)cc2)=C(C#N)C#N)cc1`, the activity change, positive = activation was -80%.

Take `COc1ccc(/C=C/C(=O)N2CCCc3ccccc32)cc1`: the activity change, positive = activation is -34.7%.

On to `O=C1CC(c2ccccc2)CC(O)=C1C=Nc1ccccc1Cl` (stereo not given), for which the activity change, positive = activation was -17.8%.

Regarding `O=C(Nc1cccnc1)Nc1ccc(F)c(Cl)c1`, the activity change, positive = activation was 32.2%.

Turning to `Nc1ccc(C(=O)Nc2nc3ccccc3s2)cc1`, the Potency is active: 1.58 µM.

Regarding `O=C(CCN1C(=O)C2C3C=CC(C3)C2C1=O)N1CCN(c2ccc(F)cc2)CC1` (stereo not given), the activity change, positive = activation was determined as 30.5%.

As for `Cc1ccccc1CSc1ncc(Cl)c(C(=O)NCc2ccccc2)n1`, the “activity change, positive = activation” value is inactive: -31.5%.

For the compound `Cn1c(NNC(=O)C(c2ccccc2)c2ccccc2)cc(=O)n(C)c1=O`, the “activity change, positive = activation” value was inactive: -45.7%.

On to `Clc1ccc(Cn2c(CN3CCCC3)nc3ccccc32)cc1`, for which the activity change, positive = activation is -47.9%.

Consider `Cc1ccc(-c2nc(-c3ccccn3)no2)cc1`, for which the activity change, positive = activation was -81.2%.

As to `Cc1ccc(NC(=O)Cn2c(O)c(N=NC(=O)c3cc4ccccc4cc3O)c3ccccc32)cc1`, the “activity change, positive = activation” value was inactive: -43.7%.

As to `COC(=O)C1=C(C(=O)OC)[C@@H]2N(C)c3ccc(OC)cc3[C@@]23C[C@@H](C(=O)OC)N(C(=O)C2CCC2)C3=N1`, the activity change, positive = activation was 30.4% [at 9.22 µM].

`NC(=O)C1(N2CCCCC2)CCN(c2nc(-c3ccc(Br)cc3)cs2)CC1`: the “activity change, positive = activation” value was inactive: -42.4%.

In the case of `CCNS(=O)(=O)c1c(C)cc(N2CCCC2=O)cc1C`, the activity change, positive = activation worked out at 27.7%.

Regarding `COc1cccc(Nc2ncnc3ccccc23)c1`, the Potency was active: 14.1 µM.

Take `CCSc1nnc2nc(C)cc(C)n12`: the activity change, positive = activation worked out at 30.4%.

With `O=S(=O)(c1cccs1)n1cccn1`, the activity change, positive = activation was found to be 15.4%.

Consider `Cc1cccc(-c2noc(CN(C(=O)c3ccc(Br)o3)C(C)C)n2)c1`, for which the activity change, positive = activation was -47.3%.

With `COc1ccccc1N1CCN(C(=O)C2CCC(Cn3c(=S)[nH]c4ccccc4c3=O)CC2)CC1` (stereo not given), the “activity change, positive = activation” value was inactive: -46.5%.

`CCCCC(=O)OCC(=O)Nc1ccc(C)c(F)c1`: the “activity change, positive = activation” value is inactive: -12.5%.

Take `CC(/C=C/c1ccccc1F)=N\NC(=O)c1ccccc1`: the Potency is active: 15.8 µM.

With `C=CCNc1nnc(Cl)c2ccccc12`, the “activity change, positive = activation” value was inactive: -32.1%.

For the compound `CC(C)OC(=O)C(C)Oc1ccc(C(=O)NCCc2ccccc2)cc1` (stereo not given), the activity change, positive = activation was 36.9%.

Consider `CC1CCCC(C)N1c1nnc(NC(=O)c2cc(-c3ccc(Br)cc3)on2)s1` (stereo not given), for which the “activity change, positive = activation” value is inactive: -49.2%.

As for `Cc1ccc(CCNS(=O)(=O)c2cnc[nH]2)cc1`, the activity change, positive = activation stood at 29.7%.

As to `CCOC(=O)CN(C(=O)CNC(=O)c1ccco1)C(C(=O)NC1CCCCC1)c1cccs1` (stereo not given), the activity change, positive = activation stood at 37.9%.

In the case of `CCCc1cc(=O)[nH]c(-n2[nH]c3c(c2=O)CCCC3)n1`, the activity change, positive = activation was -78.2%.

For `COc1ccc(Cn2c(=O)[nH]c3cc(C(=O)N4CCN(c5ccccn5)CC4)ccc3c2=O)cc1`, the activity change, positive = activation was -53.2%.

Regarding `O=C(COc1ccccc1O)N1CCN(C(=O)c2ccco2)CC1`, the activity change, positive = activation was determined as 31.7%.

With `CC1CCCN(c2nc3ccccc3nc2C(C#N)S(=O)(=O)c2cccs2)C1` (stereo not given), the “activity change, positive = activation” value was inactive: -36.8%.

Take `O=C(Nc1nc2ccc(F)cc2s1)C1=NN(c2ccccc2)C(=O)CC1`: the activity change, positive = activation was determined as 30.3%.

With `CC(OC(=O)CNC(=O)c1ccccc1F)C(=O)Nc1nc(-c2ccccc2)cs1` (stereo not given), the Potency is active: 12.6 µM.

On to `CC(C)c1ccc(NC(=S)NC2CCCCCC2)cc1`, for which the Potency was active: 12.6 µM.

Regarding `COc1ccc(CNC(=O)c2cccc(N(C)C)c2)cc1`, the activity change, positive = activation worked out at 27.4%.

As for `O=C(CS(=O)(=O)Cc1ccccc1)Nc1ncccn1`, the activity change, positive = activation stood at 31.1%.

For `NNc1nc(-c2ccccc2Cl)nc2sc3c(c12)CCCC3`, the activity change, positive = activation is -63.3%.

For `O=C(N/N=C/C(Br)=C/c1ccccc1)C1CC1`, the activity change, positive = activation came to 51.1%.

Turning to `Fc1ccc2nc(Nc3ccccc3)sc2c1`, the Potency was active: 15.8 µM.

In the case of `O=C(NCc1ccc2c(c1)OCO2)c1cc(-c2ccccc2)on1`, the activity change, positive = activation came to 38.9%.

For the compound `Cc1ccc(Cn2ccc(NC(=O)CCSc3nc(-c4ccco4)cc(C(F)(F)F)n3)n2)cc1`, the activity change, positive = activation stood at 21%.

Regarding `COc1cc(CN2CCN(Cc3ccc([N+](=O)[O-])cc3)CC2)c([N+](=O)[O-])cc1OC`, the “activity change, positive = activation” value was inactive: -60.7%.

`O=C(Nc1cnc2ccccn2c1=O)c1ccc(Cl)cc1Cl`: the Potency was active: 1.58 µM.

Regarding `O=C(OCc1ccco1)c1ccc(S(=O)(=O)N2CCCCC2)cc1`, the activity change, positive = activation was 15.2%.

With `CN1CCN(c2ccc(NC(=O)c3ccc4c(c3)OCCO4)cc2Cl)CC1`, the Potency was active: 14.1 µM.

For the compound `COc1ccc(OCCSc2ncn[nH]2)cc1`, the activity change, positive = activation came out at 33.9%.

Take `O=C(COc1ccc(F)cc1)Nc1nccs1`: the Potency was active: 11.2 µM.

As for `CCc1c(O)cc(=O)n(-c2ccccc2)c1-c1ccccc1`, the “activity change, positive = activation” value is inactive: -12.2%.

On to `COc1ccccc1Nc1nc2ccccc2n1C`, for which the Potency is active: 11.2 µM.

As to `COc1ccc(Cc2nc(C(=O)Nc3ccccc3)cs2)cc1`, the “activity change, positive = activation” value is inactive: -67.3%.

With `O=C(CCSc1ccccc1)N1CCN(C(=O)c2ccco2)CC1`, the activity change, positive = activation turned out to be 45.1%.

Take `NC(=O)Cc1ccc2sc(-c3ccccc3)nc2c1`: the activity change, positive = activation was -25.8%.

For the compound `C/C(O)=C\c1nc(=O)c2c(C)cc(C)nc2n1-c1ccccc1`, the activity change, positive = activation came out at 38.2%.

For the compound `O=C(CSC1=Nc2ccccc2C2=NC(CCC(=O)NC3CCCCC3)C(=O)N12)Nc1cccc(Cl)c1` (stereo not given), the activity change, positive = activation was 46.5%.

For `CC1(C)Cc2c(c(N3CCOCC3)nc3sc4c(NN)ncnc4c23)CS1`, the “activity change, positive = activation” value was inactive: -61.4%.

For `CCc1ccc2c(c1)C(c1ccc([N+](=O)[O-])cc1)=NNC(c1ccccc1)=N2`, the activity change, positive = activation came to 31.2%.

For the compound `CCCCOCC1CN(c2ccccc2)C(=O)CS1` (stereo not given), the activity change, positive = activation stood at 31%.

(Values after PubChem BioAssay AID1458 (National Center for Advancing Translational Sciences (NCATS), 2008).)
